# Results from the supplement of paper PMC8728848.
# The other results are listed elsewhere or left out.
# Key:
# Test in all cases: glycan array binding signal (z-score within array); higher = stronger binding
# Settings in all cases: glycan notation: IUPAC condensed, linker removed
# [1] = tested on: Fuc(a1-2)[Gal(a1-3)]Gal(b1-3)GlcNAc(b1-3)GalNAc
# In short: (§1)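 The binding signal is a Z-score computed within each array and averaged over linkers. Arrays of the same protein sequence at different concentrations or buffers were also averaged together. Data originate from 3228 arrays in the Consortium for Functional Glycomics database, kept only where the protein sequence was available.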
# [2] = tested on: Fuc(a1-2)[Gal(a1-3)]Gal(b1-3)GlcNAc
# In short: as §1
# [3] = tested on: Fuc(a1-2)[Gal(a1-3)]Gal(b1-4)GlcNAc(b1-2)Man(a1-3)[Fuc(a1-2)[Gal(a1-3)]Gal(b1-4)GlcNAc(b1-2)Man(a1-6)]Man(b1-4)GlcNAc(b1-4)GlcNAc
# In short: as §1
# [4] = tested on: Fuc(a1-2)[Gal(a1-3)]Gal(b1-4)GlcNAc(b1-2)Man(a1-3)[Fuc(a1-2)[Gal(a1-3)]Gal(b1-4)GlcNAc(b1-2)Man(a1-6)]Man(b1-4)GlcNAc(b1-4)[Fuc(a1-6)]GlcNAc
# In short: as §1
# [5] = tested on: Fuc(a1-2)[Gal(a1-3)]Gal(b1-4)GlcNAc(b1-3)GalNAc
# In short: as §1
# [6] = tested on: Fuc(a1-2)[Gal(a1-3)]Gal(b1-4)GlcNAc(b1-6)GalNAc
# In short: as §1
# [7] = tested on: Fuc(a1-2)[Gal(a1-3)]Gal(b1-4)GlcNAc
# In short: as §1
# [8] = tested on: Fuc(a1-2)[Gal(a1-3)]Gal(b1-4)Glc
# In short: as §1
# [9] = tested on: Fuc(a1-2)[Gal(a1-3)]Gal(b1-4)[Fuc(a1-3)]GlcNAc(b1-3)GalNAc
# In short: as §1
# [10] = tested on: Fuc(a1-2)[Gal(a1-3)]Gal(b1-4)[Fuc(a1-3)]GlcNAc
# In short: as §1
# [11] = tested on: Fuc(a1-2)[Gal(a1-3)]Gal(b1-4)[Fuc(a1-3)]Glc
# In short: as §1
# Fuc(a1-2)[Gal(a1-3)]Gal = tested on: Fuc(a1-2)[Gal(a1-3)]Gal
# In short: as §1
# [12] = tested on: Fuc(a1-2)[Gal(a1-4)]Gal(b1-4)GlcNAc
# In short: as §1
# [13] = tested on: Fuc(a1-2)[GalNAc(a1-3)]Gal(b1-3)GalNAc(a1-3)[Fuc(a1-2)]Gal(b1-4)GlcNAc
# In short: as §1
# [14] = tested on: Fuc(a1-2)[GalNAc(a1-3)]Gal(b1-3)GlcNAc(b1-2)Man(a1-3)[Fuc(a1-2)[GalNAc(a1-3)]Gal(b1-3)GlcNAc(b1-2)Man(a1-6)]Man(b1-4)GlcNAc(b1-4)GlcNAc
# In short: as §1
# [15] = tested on: Fuc(a1-2)[GalNAc(a1-3)]Gal(b1-3)GlcNAc(b1-2)Man(a1-3)[Fuc(a1-2)[GalNAc(a1-3)]Gal(b1-3)GlcNAc(b1-2)Man(a1-6)]Man(b1-4)GlcNAc(b1-4)[Fuc(a1-6)]GlcNAc
# In short: as §1
# [16] = tested on: Fuc(a1-2)[GalNAc(a1-3)]Gal(b1-3)GlcNAc(b1-3)GalNAc
# In short: as §1
# [17] = tested on: Fuc(a1-2)[GalNAc(a1-3)]Gal(b1-3)GlcNAc(b1-6)GalNAc
# In short: as §1
# [18] = tested on: Fuc(a1-2)[GalNAc(a1-3)]Gal(b1-3)GlcNAc
# In short: as §1
# [19] = tested on: Fuc(a1-2)[GalNAc(a1-3)]Gal(b1-4)GlcNAc(b1-2)Man(a1-3)[Fuc(a1-2)[GalNAc(a1-3)]Gal(b1-4)GlcNAc(b1-2)Man(a1-6)]Man(b1-4)GlcNAc(b1-4)GlcNAc
# In short: as §1
# [20] = tested on: Fuc(a1-2)[GalNAc(a1-3)]Gal(b1-4)GlcNAc(b1-2)Man(a1-3)[Fuc(a1-2)[GalNAc(a1-3)]Gal(b1-4)GlcNAc(b1-2)Man(a1-6)]Man(b1-4)GlcNAc(b1-4)[Fuc(a1-6)]GlcNAc
# In short: as §1
# [21] = tested on: Fuc(a1-2)[GalNAc(a1-3)]Gal(b1-4)GlcNAc(b1-3)Gal(b1-4)GlcNAc(b1-3)Gal(b1-4)GlcNAc
# In short: as §1
# [22] = tested on: Fuc(a1-2)[GalNAc(a1-3)]Gal(b1-4)GlcNAc(b1-3)Gal(b1-4)GlcNAc
# In short: as §1
# [23] = tested on: Fuc(a1-2)[GalNAc(a1-3)]Gal(b1-4)GlcNAc(b1-3)GalNAc
# In short: as §1
# [24] = tested on: Fuc(a1-2)[GalNAc(a1-3)]Gal(b1-4)GlcNAc
# In short: as §1
# [25] = tested on: Fuc(a1-2)[GalNAc(a1-3)]Gal(b1-4)Glc
# In short: as §1
# [26] = tested on: Fuc(a1-2)[GalNAc(a1-3)]Gal(b1-4)[Fuc(a1-3)]GlcNAc(b1-3)GalNAc
# In short: as §1
# [27] = tested on: Fuc(a1-2)[GalNAc(a1-3)]Gal(b1-4)[Fuc(a1-3)]GlcNAc
# In short: as §1
# [28] = tested on: Fuc(a1-2)[GalNAc(a1-3)]Gal
# In short: as §1
# [29] = tested on: Fuc(a1-2)[GalNAc(a1-4)]Gal(b1-4)GlcNAc
# In short: as §1
# [30] = tested on: Fuc(a1-2)[GalNAc(b1-3)]Gal
# In short: as §1
# Fuc(a1-3)GlcNAc = tested on: Fuc(a1-3)GlcNAc
# In short: as §1
# [31] = tested on: Fuc(a1-3)[Gal(b1-4)]Glc6S
# In short: as §1
# [32] = tested on: Fuc(a1-3)[Gal(b1-4)]GlcNAc(b1-2)Man(a1-3)[Fuc(a1-3)[Gal(b1-4)]GlcNAc(b1-2)Man(a1-6)]Man(b1-4)GlcNAc(b1-4)GlcNAc
# In short: as §1
# [33] = tested on: Fuc(a1-3)[Gal(b1-4)]GlcNAc(b1-2)Man(a1-3)[Fuc(a1-3)[Gal(b1-4)]GlcNAc(b1-2)Man(a1-6)]Man(b1-4)GlcNAc(b1-4)[Fuc(a1-6)]GlcNAc
# In short: as §1
# [34] = tested on: Fuc(a1-3)[Gal(b1-4)]GlcNAc(b1-2)Man
# In short: as §1
# [35] = tested on: Fuc(a1-3)[Gal(b1-4)]GlcNAc(b1-3)Gal(b1-3)[Fuc(a1-4)]GlcNAc
# In short: as §1
# [36] = tested on: Fuc(a1-3)[Gal(b1-4)]GlcNAc(b1-3)GalNAc
# In short: as §1
# [37] = tested on: Fuc(a1-3)[Gal(b1-4)]GlcNAc(b1-4)Gal(b1-4)[Fuc(a1-3)]GlcNAc(b1-4)Gal(b1-4)[Fuc(a1-3)]GlcNAc
# In short: as §1
# [38] = tested on: Fuc(a1-3)[Gal(b1-4)]GlcNAc(b1-4)Gal(b1-4)[Fuc(a1-3)]GlcNAc
# In short: as §1
# [39] = tested on: Fuc(a1-3)[Gal(b1-4)]GlcNAc(b1-6)GalNAc
# In short: as §1
# [40] = tested on: Fuc(a1-3)[Gal(b1-4)]GlcNAc(b1-6)[Gal(b1-3)GlcNAc(b1-3)]Gal(b1-4)Glc
# In short: as §1
# [41] = tested on: Fuc(a1-3)[Gal(b1-4)]GlcNAc(b1-6)[Neu5Ac(a2-3)Gal(b1-3)]GalNAc
# In short: as §1
# [42] = tested on: Fuc(a1-3)[Gal(b1-4)]GlcNAc6S
# In short: as §1
# [43] = tested on: Fuc(a1-3)[Gal(b1-4)]GlcNAc
# In short: as §1
# [44] = tested on: Fuc(a1-3)[Gal3S(b1-4)]GlcNAc6S
# In short: as §1
# [45] = tested on: Fuc(a1-3)[Gal3S(b1-4)]GlcNAc
# In short: as §1
# [46] = tested on: Fuc(a1-3)[GalNAc(b1-4)]GlcNAc6S
# In short: as §1
# [47] = tested on: Fuc(a1-3)[GalNAc(b1-4)]GlcNAc
# In short: as §1
# [48] = tested on: Fuc(a1-3)[GalNAc3S(b1-4)]GlcNAc
# In short: as §1
# Fuc(a1-4)GlcNAc = tested on: Fuc(a1-4)GlcNAc
# In short: as §1
# Fuc(b1-3)GlcNAc = tested on: Fuc(b1-3)GlcNAc
# In short: as §1
substance,measurement,setting,value
"Wza (Escherichia coli), P0A930",glycan array binding signal (z-score),[1],-1.15
same,glycan array binding signal (z-score),[2],-0.582
same,glycan array binding signal (z-score),[3],-0.458
same,glycan array binding signal (z-score),[4],-0.699
same,glycan array binding signal (z-score),[5],-1.57
same,glycan array binding signal (z-score),[6],1.02
same,glycan array binding signal (z-score),[7],-0.06
same,glycan array binding signal (z-score),[8],-0.311
same,glycan array binding signal (z-score),[9],-0.073
same,glycan array binding signal (z-score),[10],-0.129
same,glycan array binding signal (z-score),[11],-1.47
same,glycan array binding signal (z-score),Fuc(a1-2)[Gal(a1-3)]Gal,-0.594
same,glycan array binding signal (z-score),[12],-1.63
same,glycan array binding signal (z-score),[13],-0.097
same,glycan array binding signal (z-score),[14],0.941
same,glycan array binding signal (z-score),[15],-0.894
same,glycan array binding signal (z-score),[16],2.39
same,glycan array binding signal (z-score),[17],2.07
same,glycan array binding signal (z-score),[18],-0.77
same,glycan array binding signal (z-score),[19],-0.891
same,glycan array binding signal (z-score),[20],0.324
same,glycan array binding signal (z-score),[21],0.187
same,glycan array binding signal (z-score),[22],-1.42
same,glycan array binding signal (z-score),[23],-0.598
same,glycan array binding signal (z-score),[24],-0.975
same,glycan array binding signal (z-score),[25],-0.58
same,glycan array binding signal (z-score),[26],1.59
same,glycan array binding signal (z-score),[27],-0.059
same,glycan array binding signal (z-score),[28],-0.285
same,glycan array binding signal (z-score),[29],-0.737
same,glycan array binding signal (z-score),[30],0.246
same,glycan array binding signal (z-score),Fuc(a1-3)GlcNAc,1.15
same,glycan array binding signal (z-score),[31],-0.318
same,glycan array binding signal (z-score),[32],0.433
same,glycan array binding signal (z-score),[33],0.915
same,glycan array binding signal (z-score),[34],0.907
same,glycan array binding signal (z-score),[35],0.451
same,glycan array binding signal (z-score),[36],0.32
same,glycan array binding signal (z-score),[37],0.548
same,glycan array binding signal (z-score),[38],-1.29
same,glycan array binding signal (z-score),[39],0.934
same,glycan array binding signal (z-score),[40],-0.532
same,glycan array binding signal (z-score),[41],-0.799
same,glycan array binding signal (z-score),[42],-0.512
same,glycan array binding signal (z-score),[43],0.212
same,glycan array binding signal (z-score),[44],-1.25
same,glycan array binding signal (z-score),[45],-1.1
same,glycan array binding signal (z-score),[46],1.08
same,glycan array binding signal (z-score),[47],-1.12
same,glycan array binding signal (z-score),[48],-0.098
same,glycan array binding signal (z-score),Fuc(a1-4)GlcNAc,-0.957
same,glycan array binding signal (z-score),Fuc(b1-3)GlcNAc,1.51

# Part of the list above, with bars between the fields.
substance | measurement | setting | value
Wza (Escherichia coli), P0A930 | glycan array binding signal (z-score) | [2] | -0.582
same | glycan array binding signal (z-score) | [3] | -0.458
same | glycan array binding signal (z-score) | [4] | -0.699
same | glycan array binding signal (z-score) | [5] | -1.57
same | glycan array binding signal (z-score) | [6] | 1.02
same | glycan array binding signal (z-score) | [7] | -0.06
same | glycan array binding signal (z-score) | [8] | -0.311
same | glycan array binding signal (z-score) | [9] | -0.073
same | glycan array binding signal (z-score) | [10] | -0.129
same | glycan array binding signal (z-score) | [11] | -1.47
